Article PMC2605266
No constants are given. Whether binding was seen depends on the method and setting. Tags and fused reporters may be left off the sequences shown.

Key:
[1] = target: T1, GST fused to the cytosolic domain of VAMP4 (human); assay: pull-down; 5 ug GST fusion protein immobilised on glutathione Sepharose, 5 ug His-tagged Munc18c in 500 ul, overnight at 4 C; binding buffer 150 mM potassium acetate, 1 mM MgCl2, 0.05% Tween 20, 20 mM HEPES pH 7.4; bound Munc18c detected by immunoblot; both purified
T1 sequence (O75379 whole entry, looked up): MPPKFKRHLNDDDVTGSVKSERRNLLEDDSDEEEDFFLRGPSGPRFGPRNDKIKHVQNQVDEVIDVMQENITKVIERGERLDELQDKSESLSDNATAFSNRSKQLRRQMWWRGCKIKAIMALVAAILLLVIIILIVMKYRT

[2] = target: T2, GST fused to the cytosolic domain of VAMP8 (human); assay: as above
T2 sequence (Q9BV40 whole entry, looked up): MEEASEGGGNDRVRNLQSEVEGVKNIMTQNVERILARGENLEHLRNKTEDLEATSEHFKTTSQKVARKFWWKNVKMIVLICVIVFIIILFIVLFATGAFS

B1: Munc18c, N-terminal His6-fusion protein (protein, UniProt Q60770 1-592)
chain: MAPPVSERGLKSVVWRKIKTAVFDDCRKEGEWKIMLLDEFTTKLLSSCCKMTDLLEEGITVIENIYKNREPVRQMKALYFISPTPKSVDCFLRDFGSKSEKKYKAAYIYFTDFCPDSLFNKIKASCSKSIRRCKEINISFIPQESQVYTLDVPDAFYYCYSPDPSNASRKEVVMEAMAEQIVTVCATLDENPGVRYKSKPLDNASKLAQLVEKKLEDYYKIDEKGLIKGKTQSQLLIIDRGFDPVSTVLHELTFQAMAYDLLPIENDTYKYKTDGKEKEAVLEEDDDLWVRVRHRHIAVVLEEIPKLMKEISSTKKATEGKTSLSALTQLMKKMPHFRKQISKQVVHLNLAEDCMNKFKLNIEKLCKTEQDLALGTDAEGQRVKDSMLVLLPVLLNKNHDNCDKIRAVLLYIFGINGTTEENLDRLIHNVKIEDDSDMIRNWSHLGVPIVPPSQQAKPLRKDRSAEETFQLSRWTPFIKDIMEDAIDNRLDSKEWPYCSRCPAVWNGSGAVSARQKPRTNYLELDRKNGSRLIIFVIGGITYSEMRCAYEVSQAHKSCEVIIGSTHILTPRKLLDDIKMLNKSKDKVSFKDE
For B1, the binding [1] was “no binding (tested: less than 14% of that observed for VAMP2)” and the binding [2] was “no binding (tested: less than 14% of that observed for VAMP2)”.
